In PubChem BioAssay AID1347426 (Functional Genomics Laboratory (NCATS/FGL), 2020):
In all, about 31,000 sequences went through this assay and about 1,400 (4.5%) were called active.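 How the source made its calls: active means median seed-adjusted z-score above 1 or below -1; inactive means the rest.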 The list shows a part of the results.

test: Novel Modifiers of Survival Motor Neuron (SMN) Protein: Gene Identification via Genome-wide siRNA Screen; conditions: HEK293T SMN2-luciferase reporter, siRNA knockdown, 72 h; actives lie on both sides;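 further: luminescence tracks full-length SMN protein made from the SMN2 reporter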
Outline: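 Steps: spot 1 pmol siRNA, add Lipofectamine RNAiMax in serum-free DMEM, seed HEK293T SMN2–luciferase reporter cells; incubate 72 h at 37 °C; add ONE-Glo; normalize luminescence to control siRNA, log10, MAD. Candidates: |MAD| > 1.0.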

Row | Sequence | median seed-adjusted z-score
1 | CUCCACCAUUUACAAAUUUTT against GTF3C5 | inactive: 0.493
2 | GCAUCUAUGCUGAGACAUUTT against MRPS28 | inactive: -0.022
3 | CACUCAUUACUUCCGGGUATT against BIRC3 | inactive: -0.644
4 | GGCAUAUCAAGAUCGGUUATT against IQGAP1 | inactive: -0.615
5 | GCCUUGUAUAAAAACAUAATT against B4GALT5 | inactive: 0.104
6 | AAGUACAAGGUCUCCAUAATT against CNTFR | inactive: 0
7 | AAAUCUUCGAUUUCAUAAATT against ZNF440 | inactive: 0.208
8 | GGACGAUCACUGUUGUGCATT against RBM22 | inactive: 0.0259
9 | CGGUUCCUUUAUUACCAAATT against TNFRSF21 | inactive: 0.225
10 | CGGUUACGAUAAUGCGUUATT against ENPP5 | inactive: -0.0499
11 | CCACCAUAAUAGGUACCAATT against HMCN1 | inactive: 0.00218
12 | AAGUUCUGCUAUGAGCUAATT against TSP50 | inactive: 0.133
13 | GACUGACAAGAGAGGUUAATT against IPO7 | inactive: -0.143
14 | GCUUCAAAACCAAACAAGATT against TXNL4B | inactive: 0.762
15 | GCAUUGUCCGUCUUCAUCATT against GLP1R | inactive: 0
16 | GUGGUAUCGUUUACGGUUATT against SEC63 | inactive: -0.159
17 | GGCCUUACUUUAUUGGAUUTT against PDGFRA | inactive: 0.0399
18 | CCUUAUUGAGGAACUUGAATT against PON3 | inactive: -0.0823
19 | CCUUCAGAAUGACCCAUUUTT against SLC43A3 | inactive: 0.431
20 | UCAUGGACCUGAUCAGAAATT against SLC1A6 | inactive: 0.0455
21 | GGGAAGAUCCGAGACCAAATT against ATP2A1 | inactive: -0.0384
22 | AGAGGAGAGUGGAAUUCCATT against ARID3C | active: -1.32

Row | Sequence | median seed-adjusted z-score
23 | GCUCUACCAUGAGGACCUUTT against PARP10 | inactive: -0.454
24 | CUACUACUUUAAUCCCUAATT against FDFT1 | inactive: -0.143
25 | CGGACUACGAUGGACCCAATT against GNAT1 | inactive: -0.188
26 | GAAUAACAACAAUCUUGAATT against MAP3K7IP3 | inactive: 0.267
27 | CUAUAGGUUUUAUAGCAUUTT against LIPA | inactive: 0.535
28 | GAAUGAUGGUGGGAACUAUTT against BMP2K | inactive: -0.51
29 | CGAAUAGUUUUGUUUGACATT against ZMPSTE24 | inactive: -0.633
30 | CAAAGCUCAUGGAACAUAATT against ZNF676 | inactive: -0.499
31 | GAGGGAAUCCUGUACAGGATT against FBXO44 | inactive: -0.45
32 | GAACUUUGUCAUUACCUAUTT against CTSF | inactive: 0.161
33 | GCCUGUCGAGGAGAACAAATT against CASP14 | inactive: 0.702
34 | GCAUUAUCGUCAUCCUUGUTT against ADCYAP1R1 | inactive: 0.404
35 | GGCAGAUGGGAUUCGAAUATT against ZZEF1 | inactive: 0.167
36 | CCAAGGAACUGGAUGCGAATT against EPHA10 | inactive: 0.502
37 | GCAAGGUUUAAUGAACAAATT against GTF2E1 | active: 1.76
38 | CGUGGUACCAGACAUCUGATT against CCL17 | inactive: 0.178
39 | GGAAAAAGCUCUCAAGAAUTT against GNRHR | inactive: 0.0978
40 | GAUGGAACAUUAAACAUCATT against ALDH6A1 | inactive: -0.0908
41 | ACAACAUCGAGAUCGAGUATT against LINGO1 | inactive: -0.443
42 | CAGCUGUGGGAAUCACUUUTT against CCS | inactive: 0.0581
43 | CAGAGAAUCCUAAUGAUAATT against LRP10 | inactive: 0.109
44 | GAUCCUGAGUUAGAGAAGATT against METTL3 | inactive: 0.261

Row | Sequence | median seed-adjusted z-score
45 | GCUUCACUCAGAUUCCGAUTT against DYNC1I2 | inactive: -0.167
46 | GGAAUAUGCAUAUCAUGGATT against LNPEP | inactive: -0.386
47 | GCACUUAUACCAUACUAUUTT against CCNG2 | inactive: -0.764
48 | GGCUUCUACUCCUCAGUCATT against HOXC11 | inactive: -0.188
49 | GGAAAUAUCCUAAUGGUUUTT against SLC25A20 | inactive: -0.183
50 | GGAAGAAGCUGUUAAAGCATT against VEZF1 | inactive: 0.974
51 | CCACCGUCAUGUUUCUCUATT against HOXA13 | inactive: -0.136
52 | CAGAGAUGCGUGAGAAGUUTT against INSL3 | inactive: -0.037
53 | CUAUCAAAUCUGAACGUGATT against ENOX2 | inactive: 0.0233
54 | GAAUUCCAGUUGUUAGGAATT against DIO1 | inactive: 0.0467
55 | UCGUGUCCCUCUUCCGUAUTT against FZD7 | inactive: -0.159
56 | CCACUGUUGGAAUUAAAGATT against AOAH | inactive: -0.123
57 | GCAGCUUGGUUUAACGAAUTT against HOOK1 | inactive: 0.202
58 | CCCUUAAUGUUACCUAUGATT against USP24 | inactive: 0.101
59 | ACACUUCUACUGGACCUCATT against CCL22 | inactive: 0
60 | CCCUGUCUUUAUAUACUGATT against CEPT1 | inactive: 0.328
61 | GAAUAUCGAUGGACUUAAATT against NAP1L5 | inactive: 0.115
62 | GCAUCAAGAGCAAACCGAATT against TNFRSF17 | inactive: -0.0138
63 | CCACAUAGGUCAGAAACGATT against CLDN17 | inactive: 0
64 | GGUAAAACAGGAACGUAUATT against GPR116 | inactive: 0
65 | GGAAUUCCAGUAACGAUGATT against RNF149 | inactive: -0.17
66 | GGCUCUGAUGUGACCCUUATT against KIRREL | inactive: -0.74

Nos. 58 to 59 of the list above:
Row | Sequence | median seed-adjusted z-score
58 | CCCUUAAUGUUACCUAUGATT against USP24 | inactive: 0.101
59 | ACACUUCUACUGGACCUCATT against CCL22 | inactive: 0

The list goes on.

Row | Sequence | median seed-adjusted z-score
67 | GCUGCACCCUUAUAAGGAUTT against ACPP | inactive: 0.311
68 | ACAUCAACGUGGAACGAGATT against EIF4A1 | active: -1.05
69 | GCACUAAGCAAAAACUAGATT against BCAP31 | inactive: 0.277
70 | GGCCUAGUGUAAUCUCCCATT against ZNF774 | inactive: -0.0834
71 | CAAGCAGCCUGGUACCACATT against PAQR8 | inactive: 0
72 | CUAUGGGUCGUGGAACAAATT against HSP90AA1 | inactive: -0.323
73 | GUUUUUACGUGACAAAAGATT against TBXAS1 | inactive: 0
74 | CAAUUACAUUCGAUAUCAUTT against ZNF20 | inactive: -0.359
75 | GAAGCUAGAACUUACCAAATT against KCNN2 | inactive: -0.0251
76 | GGAUGAUCGAUAAGAACGATT against PDCD6 | inactive: 0.325
77 | CAACAAGAAUAAGAAUUCATT against PLCD1 | inactive: -0.0473
78 | CGCAGAAGAUUGUAAGGCATT against RBP4 | inactive: 0.0208
79 | GGCAUUUAACAAUCGCUCATT against ZNF781 | inactive: 0.0307
80 | AGUUCUGGAUUGCCUGUGATT against RGS5 | inactive: 0
81 | GGAGCUCAGAUAAUAGGCATT against NPHS1 | inactive: -0.0505
82 | CAACAGCGAUUUGAUGGAATT against ERO1L | inactive: -0.251
83 | GCCUAUUUUUAAGUCCGAATT against SETD2 | inactive: -0.0192
84 | ACGACAACCUGAGCAAGAATT against GJB4 | inactive: 0.131
85 | GGAGUUCAAUUGUCACCAUTT against IGF1R | inactive: -0.358
86 | CAGGAUAUCUGCUAAGAAATT against FARP2 | inactive: -0.0358
87 | GCCCAGGAAAGAUAAGGCATT against PTH1R | inactive: -0.521
88 | GCUACUUACCCACUACUAUTT against ACSL6 | inactive: -0.0934

An excerpt of these results, comma-delimited:
Row,Sequence,median seed-adjusted z-score
52,CAGAGAUGCGUGAGAAGUUTT against INSL3,inactive: -0.037
53,CUAUCAAAUCUGAACGUGATT against ENOX2,inactive: 0.0233

Additional entries

Row | Sequence | median seed-adjusted z-score
89 | GGGAUUACCUAGAAAAAUATT against NNMT | inactive: -0.095
90 | GGGUACAACUCUUUGAAGATT against MNAT1 | inactive: -0.335
91 | GCGAGAAUCCUGACCACAATT against TSPYL2 | inactive: 0.0187
92 | GAUGCGAUAUUAAUGGGAATT against SMYD4 | inactive: 0.272
93 | GGAGAAACAGUGUACUAUUTT against IL20RB | inactive: -0.413
94 | GCAUAUAGUUGGAAAGAGATT against ASCC1 | inactive: -0.00853
95 | GGACAUCUCUGUGGAAGAATT against ACTN3 | inactive: -0.109
96 | GAUGAUUACCUGCAGAGCATT against MYD88 | inactive: -0.365
97 | GGAAUUUUUCGGGUGGUUATT against ELF5 | inactive: -0.45
98 | AGAUAGCCCUGGAUAAGAATT against STK10 | inactive: 0.0138
99 | GGCAGGAGGUUUAAGAAGUTT against PPP3R2 | inactive: -0.143
100 | GCACCGAUCUCAAAGUCCATT against PLA1A | inactive: 0.197
101 | GCAAUGUUGUGGGACACUATT against SLC30A1 | inactive: 0.314
102 | CCAAGUGCCGAAAAAGGAATT against JUN | inactive: 0.381
103 | CAAGAAAACUGCGAAUAAATT against STX2 | inactive: 0.442
104 | AGUCCAAUGCAGGUCUUUATT against IGSF1 | inactive: 0.258
105 | CGUCAUCGCUCAGACCUUATT against ZNF623 | inactive: 0.272
106 | AUUUCCUUAUUUACGAGUATT against SCN3B | inactive: 0
107 | CAGUUGAAGCAAUACACUUTT against RGS6 | inactive: -0.904
